The values that follow come from paper PMC3184947.

Where a chain is given by its changes, count along the chain named. Like-named read-outs stand apart in the source and are kept apart here. No constants are given. Whether binding was seen depends on the method and setting. Binding seen in cells or lysates may run through a third protein. Some binding calls cover weakened binding; strength is not graded here. For some of these results: Tags and fused reporters may be left off the sequences shown.

Assay [1] addresses T1, Cdc11-GFP (S. cerevisiae) (UniProt P32458).
T1 sequence: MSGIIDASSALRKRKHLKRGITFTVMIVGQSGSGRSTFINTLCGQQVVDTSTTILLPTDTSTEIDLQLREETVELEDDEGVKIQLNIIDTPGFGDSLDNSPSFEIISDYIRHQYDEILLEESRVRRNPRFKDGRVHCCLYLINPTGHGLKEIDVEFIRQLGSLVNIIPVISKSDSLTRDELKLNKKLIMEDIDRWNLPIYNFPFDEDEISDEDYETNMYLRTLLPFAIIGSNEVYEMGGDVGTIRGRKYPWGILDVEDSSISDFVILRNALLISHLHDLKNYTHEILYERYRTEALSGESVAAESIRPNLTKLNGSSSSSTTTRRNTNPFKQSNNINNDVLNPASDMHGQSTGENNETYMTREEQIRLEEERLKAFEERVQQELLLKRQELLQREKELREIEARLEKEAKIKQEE
Description: co-IP; GFP-trap magnetic beads added to 10 mg of yeast whole cell lysate, bait a GFP-tagged septin; eluates on SDS-PAGE, silver stain and Western blot (anti-acetyl lysine, anti-HA, anti-actin, anti-GFP); wild type ESA1 or esa1-L254P background, cells at 25°C or 37°C. For orientation: In western blotting, separated proteins are transferred to a membrane and probed.

In assay [2] the target is T1, Cdc11-GFP (S. cerevisiae). The assay is described as above. This is another data set of the same source.
For assay [3], the target named is T2, Shs1-TAP (S. cerevisiae) (UniProt Q07657).
T2 sequence: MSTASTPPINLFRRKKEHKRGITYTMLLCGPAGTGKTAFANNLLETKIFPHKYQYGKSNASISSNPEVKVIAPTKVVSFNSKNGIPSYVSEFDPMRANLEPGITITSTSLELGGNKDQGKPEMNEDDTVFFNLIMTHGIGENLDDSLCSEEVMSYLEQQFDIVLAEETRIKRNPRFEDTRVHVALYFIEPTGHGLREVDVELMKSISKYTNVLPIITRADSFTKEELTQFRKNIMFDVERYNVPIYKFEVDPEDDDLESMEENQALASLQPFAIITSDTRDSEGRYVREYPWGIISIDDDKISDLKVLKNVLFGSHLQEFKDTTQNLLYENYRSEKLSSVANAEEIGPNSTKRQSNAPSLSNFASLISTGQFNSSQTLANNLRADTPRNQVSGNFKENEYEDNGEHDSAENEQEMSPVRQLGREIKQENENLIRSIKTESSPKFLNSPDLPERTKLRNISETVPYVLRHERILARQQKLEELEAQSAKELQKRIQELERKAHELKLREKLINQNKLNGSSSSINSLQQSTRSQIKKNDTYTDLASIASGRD
Description: co-IP; single step purification of TAP-tagged septins (Cdc10-TAP, Cdc11-TAP, Shs1-TAP) on IgG magnetic beads from 40 mg yeast whole cell extract, 300 mM sodium acetate, 4°C; in vitro NuA4 KAT assay on the beads, SDS-PAGE, Coomassie staining and fluorography.

The target of assay [4] is T3, Cdc10-TAP (S. cerevisiae) (UniProt P25342).
T3 sequence: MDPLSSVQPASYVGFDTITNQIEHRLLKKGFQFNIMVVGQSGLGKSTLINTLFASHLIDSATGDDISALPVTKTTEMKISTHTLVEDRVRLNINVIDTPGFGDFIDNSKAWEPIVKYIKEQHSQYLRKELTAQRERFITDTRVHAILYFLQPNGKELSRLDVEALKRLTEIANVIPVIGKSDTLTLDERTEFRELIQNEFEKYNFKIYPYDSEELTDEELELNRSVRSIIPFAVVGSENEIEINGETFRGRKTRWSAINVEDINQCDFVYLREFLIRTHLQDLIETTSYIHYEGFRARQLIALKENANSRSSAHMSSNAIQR
The description is as above.

Assay [5] deals with T4, Cdc11-TAP (S. cerevisiae) (UniProt P32458).
T4 sequence: T1 sequence
Described as above.

Assay [6] deals with T5, Cdc11-GFP (S. cerevisiae), P32458.
T5 chain: T1 sequence
The experiment in a line: co-IP; GFP-trap magnetic beads added to 10 mg of yeast whole cell lysate, bait a GFP-tagged septin; eluates on SDS-PAGE, silver stain and Western blot (anti-acetyl lysine, anti-HA, anti-actin, anti-GFP); wild type ESA1 or esa1-L254P background, cells at 25°C or 37°C. The following applies: remark: other sources report otherwise.

For Act1 (from UniProt P60010 1-375), the binding entry in assay [1] is on record as “binds”.

B1: Cdc3 (protein, UniProt P32457 1-520)
chain: MSLKEEQVSIKQDPEQEERQHDQFNDVQIKQESQDHDGVDSQYTNGTQNDDSERFEAAESDVKVEPGLGMGITSSQSEKGQVLPDQPEIKFIRRQINGYVGFANLPKQWHRRSIKNGFSFNLLCVGPDGIGKTTLMKTLFNNDDIEANLVKDYEEELANDQEEEEGQGEGHENQSQEQRHKVKIKSYESVIEENGVKLNLNVIDTEGFGDFLNNDQKSWDPIIKEIDSRFDQYLDAENKINRHSINDKRIHACLYFIEPTGHYLKPLDLKFMQSVYEKCNLIPVIAKSDILTDEEILSFKKTIMNQLIQSNIELFKPPIYSNDDAENSHLSERLFSSLPYAVIGSNDIVENYSGNQVRGRSYPWGVIEVDNDNHSDFNLLKNLLIKQFMEELKERTSKILYENYRSSKLAKLGIKQDNSVFKEFDPISKQQEEKTLHEAKLAKLEIEMKTVFQQKVSEKEKKLQKSETELFARHKEMKEKLTKQLKALEDKKKQLELSINSASPNVNHSPVPTKKKGFLR
In the case of B1, the binding entry in assay [2], in assay [3], in assay [4] and in assay [5] was “binds” in each case.

B2: Cdc10, P25342 1-322 (protein)
chain: T3 sequence
For B2, the binding result in assay [6] is listed as “binds”.

B3: shs1-66Δ (domain or fragment, UniProt Q07657 1-485)
chain: MSTASTPPINLFRRKKEHKRGITYTMLLCGPAGTGKTAFANNLLETKIFPHKYQYGKSNASISSNPEVKVIAPTKVVSFNSKNGIPSYVSEFDPMRANLEPGITITSTSLELGGNKDQGKPEMNEDDTVFFNLIMTHGIGENLDDSLCSEEVMSYLEQQFDIVLAEETRIKRNPRFEDTRVHVALYFIEPTGHGLREVDVELMKSISKYTNVLPIITRADSFTKEELTQFRKNIMFDVERYNVPIYKFEVDPEDDDLESMEENQALASLQPFAIITSDTRDSEGRYVREYPWGIISIDDDKISDLKVLKNVLFGSHLQEFKDTTQNLLYENYRSEKLSSVANAEEIGPNSTKRQSNAPSLSNFASLISTGQFNSSQTLANNLRADTPRNQVSGNFKENEYEDNGEHDSAENEQEMSPVRQLGREIKQENENLIRSIKTESSPKFLNSPDLPERTKLRNISETVPYVLRHERILARQQKLEELEAQ
For B3, in assay [2], the binding entry is “binds”.

B4: Shs1, Q07657 1-551 (protein)
chain: T2 sequence
B4: the binding entry in assay [6] is listed as “binds”.

B5: Shs1-HA3 fusion protein, Q07657 1-551 (protein)
chain: T2 sequence
On to B5, for which, in assay [6], the binding entry is given as “binds”.

B6: Shs1 8R mutant (protein, UniProt Q07657 1-551)
chain: T2 sequence with K488R, K492R, K500R, K505R, K509R, K515R, K535R, K536R
Turning to B6, in assay [2], the binding result was “binds”.

B7: Shs1 9R mutant (protein, UniProt Q07657 1-551)
chain: T2 sequence with K478R, K488R, K492R, K500R, K505R, K509R, K515R, K535R, K536R
Regarding B7, the binding entry in assay [2] is on record as “binds”.

B8: Cdc12 (protein, UniProt P32468 1-407)
chain: MSAATATAAPVPPPVGISNLPNQRYKIVNEEGGTFTVMLCGESGLGKTTFINTLFQTVLKRADGQQHRQEPIRKTVEIDITRALLEEKHFELRVNVIDTPGFGDNVNNNKAWQPLVDFIDDQHDSYMRQEQQPYRTKKFDLRVHAVLYFIRPTGHGLKPIDIETMKRLSTRANLIPVIAKADTLTAQELQQFKSRIRQVIEAQEIRIFTPPLDADSKEDAKSGSNPDSAAVEHARQLIEAMPFAIVGSEKKFDNGQGTQVVARKYPWGLVEIENDSHCDFRKLRALLLRTYLLDLISTTQEMHYETYRRLRLEGHENTGEGNEDFTLPAIAPARKLSHNPRYKEEENALKKYFTDQVKAEEQRFRQWEQNIVNERIRLNGDLEEIQGKVKKLEEQVKSLQVKKSHLK
Take B8: the binding entry in assay [3] and in assay [4] was “binds” each time.
